Reference: patent US8299302B2 (priority 2007, dated 2012)
Some entries share one result that the patent states for a list of compounds.

Legend:
Alternaria solani = assay: Alternaria test (tomato) / protective; type: in vivo; conditions: tomato plants, protective spray, active compound concentration 500 ppm, evaluation 7 days after inoculation
Puccinia recondita = assay: Puccinia test (wheat) / protective; type: in vivo; conditions: wheat plants, protective spray, active compound concentration 1000 ppm, evaluation 10 days after inoculation
Description: To produce a suitable preparation of active compound, 1 part by weight of active compound is mixed with the stated amounts of solvent and emulsifier, and the concentrate is diluted with water to the desired concentration.
To test for protective activity, young plants are sprayed with the active compound preparation at the stated application rate. After the spray coating has dried on, the plants are sprayed with a conidia suspension of Puccinia recondita. The plants remain in an incubation cabin at 20° C. and 100% relative atmospheric humidity for 48 hours.
The plants are then placed in a greenhouse at a temperature of about 20° C. and a relative atmospheric humidity of 80% to promote the development of rust pustules.
Evaluation is carried out 10 days after the inoculation. 0% means an efficacy which corresponds to that of the control, whereas an efficacy of 100% means that no infection is observed.

Compound | efficacy (Alternaria solani) | efficacy (Puccinia recondita)
CCN(C)C=Nc1cc(C)c(Oc2ccc(-c3ccccc3Cl)cc2)cc1C [Compound 27, N′-{4-[(2′-chlorobiphenyl-4-yl)oxy]-2,5-dimethylphenyl}-N-ethyl-N-methylimidoformamide] | ≥ 70% | 
N′-{4-[4-cyclohexyl-2-phenoxy]-2,5-dimethylphenyl}-N-[(1E)-(2-methylpiperidin-1-yl)methylene]aniline [Compound 40] |  | ≥ 70%
CCN(C)C=Nc1cc(C)c(Oc2ccc(C3CCCC3)cc2)cc1C [Compound 32, N′-[4-(4-cyclopentylphenoxy)-2,5-dimethylphenyl]-N-ethyl-N-methylimidoformamide] | ≥ 70% | 
CCN(C)C=Nc1cc(C)c(Oc2ccc(-c3ccccc3)cc2)cc1C [Compound 31, N′-[4-(biphenyl-4-yloxy)-2,5-dimethylphenyl]-N-ethyl-N-methylimidoformamide] | ≥ 70% | 
